Experimental data: patent publication US20130230532A1 (HONG KONG UNIVERSITY OF SCIENCE AND TECHNOLOGY, published 2013)
No constants are given. Whether binding was seen depends on the method and setting. Binding seen in cells or lysates may run through a third protein. Some entries that bind do so weakly or less than the wild type. Where a sequence is shown, tags or fusion partners need not be part of it.

By UniProt entry, the sequences of proteins in these tests, tags left out.
UniProt Q99996: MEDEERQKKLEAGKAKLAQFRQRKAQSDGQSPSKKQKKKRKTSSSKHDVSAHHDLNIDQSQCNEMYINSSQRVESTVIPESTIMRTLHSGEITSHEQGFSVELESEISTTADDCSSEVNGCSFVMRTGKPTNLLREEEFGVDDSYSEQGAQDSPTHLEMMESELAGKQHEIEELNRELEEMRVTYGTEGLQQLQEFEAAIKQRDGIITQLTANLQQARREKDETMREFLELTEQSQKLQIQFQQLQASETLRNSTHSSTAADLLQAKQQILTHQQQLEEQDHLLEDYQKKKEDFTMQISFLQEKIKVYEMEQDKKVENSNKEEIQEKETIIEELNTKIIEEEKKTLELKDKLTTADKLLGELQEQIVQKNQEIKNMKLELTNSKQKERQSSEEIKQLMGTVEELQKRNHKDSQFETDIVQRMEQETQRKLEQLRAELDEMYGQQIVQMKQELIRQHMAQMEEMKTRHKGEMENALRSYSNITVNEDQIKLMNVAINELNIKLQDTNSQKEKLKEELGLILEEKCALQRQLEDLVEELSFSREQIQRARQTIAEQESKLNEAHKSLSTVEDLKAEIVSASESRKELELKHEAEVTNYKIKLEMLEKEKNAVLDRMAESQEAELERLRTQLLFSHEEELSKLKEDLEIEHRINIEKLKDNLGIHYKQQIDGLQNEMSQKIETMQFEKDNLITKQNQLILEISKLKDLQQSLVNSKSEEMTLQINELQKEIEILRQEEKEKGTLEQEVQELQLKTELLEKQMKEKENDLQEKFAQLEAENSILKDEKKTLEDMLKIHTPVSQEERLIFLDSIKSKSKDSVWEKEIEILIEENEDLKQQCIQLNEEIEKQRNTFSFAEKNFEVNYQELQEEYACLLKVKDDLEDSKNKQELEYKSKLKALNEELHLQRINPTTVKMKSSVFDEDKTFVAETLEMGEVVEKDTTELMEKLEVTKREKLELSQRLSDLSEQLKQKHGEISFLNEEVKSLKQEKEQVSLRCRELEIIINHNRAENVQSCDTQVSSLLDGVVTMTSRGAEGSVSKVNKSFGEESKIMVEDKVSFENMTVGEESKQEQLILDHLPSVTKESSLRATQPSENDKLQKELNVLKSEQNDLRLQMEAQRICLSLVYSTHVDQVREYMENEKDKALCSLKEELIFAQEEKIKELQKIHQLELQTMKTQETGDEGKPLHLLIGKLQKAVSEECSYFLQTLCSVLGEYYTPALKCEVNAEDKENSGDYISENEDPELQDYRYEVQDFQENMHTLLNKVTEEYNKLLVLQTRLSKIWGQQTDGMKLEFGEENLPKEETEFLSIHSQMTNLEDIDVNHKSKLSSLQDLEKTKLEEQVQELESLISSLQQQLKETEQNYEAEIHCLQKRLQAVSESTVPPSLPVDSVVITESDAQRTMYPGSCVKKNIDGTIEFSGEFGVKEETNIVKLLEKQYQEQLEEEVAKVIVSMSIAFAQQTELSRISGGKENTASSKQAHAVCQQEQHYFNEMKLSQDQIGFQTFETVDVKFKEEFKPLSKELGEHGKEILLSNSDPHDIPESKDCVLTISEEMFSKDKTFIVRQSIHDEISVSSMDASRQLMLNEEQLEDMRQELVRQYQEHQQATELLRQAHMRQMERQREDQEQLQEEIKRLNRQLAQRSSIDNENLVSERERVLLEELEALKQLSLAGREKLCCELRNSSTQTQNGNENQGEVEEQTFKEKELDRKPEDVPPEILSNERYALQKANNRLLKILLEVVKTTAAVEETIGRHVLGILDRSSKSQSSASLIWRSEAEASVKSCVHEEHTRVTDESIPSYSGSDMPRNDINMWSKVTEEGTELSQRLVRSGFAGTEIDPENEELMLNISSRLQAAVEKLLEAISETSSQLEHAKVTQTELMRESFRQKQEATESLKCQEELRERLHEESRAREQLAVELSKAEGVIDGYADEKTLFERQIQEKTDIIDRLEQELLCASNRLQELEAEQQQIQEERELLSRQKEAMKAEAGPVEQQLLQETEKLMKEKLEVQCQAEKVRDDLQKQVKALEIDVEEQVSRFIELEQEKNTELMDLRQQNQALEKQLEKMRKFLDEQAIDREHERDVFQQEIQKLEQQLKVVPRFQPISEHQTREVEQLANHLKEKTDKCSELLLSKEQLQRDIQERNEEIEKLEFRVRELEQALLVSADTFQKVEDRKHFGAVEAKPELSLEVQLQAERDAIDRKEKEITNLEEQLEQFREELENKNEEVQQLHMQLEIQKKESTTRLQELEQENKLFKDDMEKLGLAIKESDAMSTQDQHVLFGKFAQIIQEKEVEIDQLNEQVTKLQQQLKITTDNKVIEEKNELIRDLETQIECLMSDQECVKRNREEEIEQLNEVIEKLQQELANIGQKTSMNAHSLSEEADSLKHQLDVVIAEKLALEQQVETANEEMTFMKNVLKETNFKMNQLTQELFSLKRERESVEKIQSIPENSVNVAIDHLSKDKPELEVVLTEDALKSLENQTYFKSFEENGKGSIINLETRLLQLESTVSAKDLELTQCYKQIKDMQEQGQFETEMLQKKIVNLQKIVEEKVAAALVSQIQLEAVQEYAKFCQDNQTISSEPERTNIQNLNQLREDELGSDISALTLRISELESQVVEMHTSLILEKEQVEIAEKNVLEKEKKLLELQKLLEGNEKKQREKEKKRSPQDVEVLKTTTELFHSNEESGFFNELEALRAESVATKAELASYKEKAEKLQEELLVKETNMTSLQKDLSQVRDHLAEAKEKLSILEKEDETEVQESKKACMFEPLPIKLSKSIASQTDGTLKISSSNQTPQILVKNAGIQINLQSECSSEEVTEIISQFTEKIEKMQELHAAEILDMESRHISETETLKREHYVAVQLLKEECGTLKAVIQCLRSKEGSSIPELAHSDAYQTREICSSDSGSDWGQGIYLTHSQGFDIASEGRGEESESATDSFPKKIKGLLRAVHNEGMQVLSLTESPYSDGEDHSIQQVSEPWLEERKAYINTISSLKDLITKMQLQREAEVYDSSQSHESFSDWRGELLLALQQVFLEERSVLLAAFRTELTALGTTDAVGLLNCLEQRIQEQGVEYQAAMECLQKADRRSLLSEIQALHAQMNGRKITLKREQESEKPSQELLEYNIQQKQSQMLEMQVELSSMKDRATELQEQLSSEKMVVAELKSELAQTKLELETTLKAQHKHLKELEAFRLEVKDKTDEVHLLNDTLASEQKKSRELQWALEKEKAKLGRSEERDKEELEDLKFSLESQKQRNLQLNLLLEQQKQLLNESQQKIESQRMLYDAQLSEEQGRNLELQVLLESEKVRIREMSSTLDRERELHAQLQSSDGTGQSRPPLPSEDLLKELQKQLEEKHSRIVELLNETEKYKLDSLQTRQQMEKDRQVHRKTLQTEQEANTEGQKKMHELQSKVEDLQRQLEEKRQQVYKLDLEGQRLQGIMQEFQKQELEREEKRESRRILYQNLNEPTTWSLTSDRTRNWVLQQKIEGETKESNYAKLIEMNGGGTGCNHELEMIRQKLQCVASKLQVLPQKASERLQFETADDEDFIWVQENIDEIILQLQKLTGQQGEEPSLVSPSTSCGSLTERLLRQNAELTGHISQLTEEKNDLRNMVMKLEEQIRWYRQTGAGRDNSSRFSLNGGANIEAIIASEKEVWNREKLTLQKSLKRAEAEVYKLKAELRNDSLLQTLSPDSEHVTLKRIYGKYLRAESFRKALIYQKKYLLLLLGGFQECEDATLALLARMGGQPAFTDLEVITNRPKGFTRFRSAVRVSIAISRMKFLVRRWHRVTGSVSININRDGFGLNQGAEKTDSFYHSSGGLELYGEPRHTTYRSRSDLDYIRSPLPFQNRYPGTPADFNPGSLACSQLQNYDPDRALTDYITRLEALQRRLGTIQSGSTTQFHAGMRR

What was measured:
[1] = biological target: T1, EB1 (UniProt Q15691 2-268); test: anti-FLAG co-immunoprecipitation, immunoblot
T1 construct: Endogenous protein detected by immunoblot or mass spectrometry; also called endogenous EB1
T1 sequence (looked up): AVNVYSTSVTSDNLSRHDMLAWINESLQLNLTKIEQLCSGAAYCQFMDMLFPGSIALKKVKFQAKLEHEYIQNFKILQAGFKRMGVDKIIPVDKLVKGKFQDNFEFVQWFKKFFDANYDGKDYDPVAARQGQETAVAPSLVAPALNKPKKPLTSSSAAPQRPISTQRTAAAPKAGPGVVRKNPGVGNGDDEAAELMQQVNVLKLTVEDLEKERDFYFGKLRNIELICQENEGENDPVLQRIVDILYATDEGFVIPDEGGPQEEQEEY
Method: After anti-FLAG immunoprecipitation, the immunoprecipitates and inputs were probed on immunoblots. […] Scale bars, 5 μm.
(§1) Anti-FLAG immunoprecipitation was performed using anti-FLAG-coupled beads (M2, Sigma) in cell extracts prepared with a lysis buffer (20 mM Tris-HCl, pH7.4, 150 mM NaCl, 1 mM EDTA, 1% Triton X-100, 1 mM dithiothreitol, and the Protease Inhibitor Cocktail). Immunoprecipitated proteins were detected by immunoblotting.

[2] = biological target: T2, AKAP450 (UniProt Q99996 1-3907, limits assumed); test: co-immunoprecipitation and localization of MMG8 fragments
T2 construct: Endogenous protein detected by immunoblot; also called AKAP350; CG-NAP

[3] = biological target: T2, AKAP450; test: anti-FLAG co-immunoprecipitation from HEK293T, immunoblot
Method: The immunoprecipitated proteins and inputs were analyzed by immunoblotting and quantified. […] Data shown are means±S.D. from three independent experiments. […] The arrow indicates a transfected cell. Boxed areas are enlarged. Scale bars, 5 μm.
as §1

Measured: binding

B1: FLAG-tagged MMG8 fragment 1-389 (protein, not shown: small tags and cut ends)
chain: MKEICRICARELCGNQRRWIFHTASKLNLQVLLSHVLGKDVPRDGKAEFACSKCAFMLDRIYRFDTVIARIEALSIERLQKLLLEKDRLKFCIASMYRKNNDDSGAEIKAGNGTVDMSVLPDARYSALLQEDFAYSGFECWVENEDQIQEPHSCHGSEGPGNRPRRCRGCAALRVADSDYEAICKVPRKVARSISCGPSSRWSTSICTEEPALSEVGPPDLASTKVPPDGESMEEETPGSSVESLDASVQASPPQQKDEETERSAKELGKCDCCSDDQAPQHGCNHKLELALSMIKGLDYKPIQSPRGSRLPIPVKSSLPGAKPGPSMTDGVSSGFLNRSLKPLYKTPVSYPLELSDLQELWDDLCEDYLPLRVQPMTEELLKQQKLNS
binds: all assays above
